Results reported in the supplement of paper PMC12889115.
The list shows a part of the results. Values are raw readings; no control value is given beside them.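 First-pass screen: polymyxin B was added at a level that permeabilizes the Salmonella outer membrane while sparing the inner membrane. DMSO wells, with and without polymyxin B, defined maximum growth. Because plates differed from one another, each plate's data were ranked separately and the compounds with the lowest OD600 were carried forward as hits.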

Tested on: Salmonella enterica serovar Typhimurium SL1344
Experiment: bacterial growth OD600 after 18 h with compound and polymyxin B; higher = more bacterial growth (less inhibition)
Conditions: 50 µM, Mueller-Hinton broth

Row | SMILES | bacterial growth OD600 (polymyxin B 1 µg/mL) | bacterial growth OD600 (polymyxin B 0.75 µg/mL)
1 | CCN(C(=O)c1cccc(F)c1F)[C@@H]1CCN(C(=O)c2cccs2)C[C@H]1O | 1.04 | 
2 | C=C(C)CN(CC)C(=O)c1cc(Cn2c(C)nc3ccccc32)on1 | 0.932 | 
3 | COc1ccc(CN2CC(=O)N(c3ccccc3SC)C(C)C2)cc1O (configuration not stated) |  | 0.828
4 | CN(CCC(O)c1ccccc1)c1nncc(-c2ccc(F)cc2)n1 (configuration not stated) |  | 0.564
5 | COc1cccc(CNC(=O)CCC2(Cc3ccc(Cl)cc3)CCC(=O)N2)c1OC (configuration not stated) |  | 0.839
6 | COCCN1C(=O)NC(Cc2ccc(F)cc2)(C2CCN(C(=O)CC3=CCCCC3)CC2)C1=O (configuration not stated) |  | 0.839
7 | Cc1ccccc1-n1ncc2c1CC(C)(C)CC2NC(=O)CC(F)(F)F (configuration not stated) |  | 0.001
8 | CCN(Cc1ccccc1)c1ccc(C(=O)N2CCCC(COC)C2)cn1 (configuration not stated) | 0.887 | 
9 | C=CCNC(=O)NCc1cccnc1N1CCN(c2ccccn2)CC1 | 0.96 | 
10 | C=C(C)CN(CC)C(=O)c1coc(COc2ccc3c(c2)OCO3)n1 | 0.826 | 
11 | CCc1cc(CNC(=O)c2coc(COc3ccc(F)cc3Cl)n2)on1 | 0.883 | 
12 | COc1cc(OC)c(CN2CCN(CC3CCCCC3)C(CCO)C2)c(OC)c1 (configuration not stated) | 0.903 | 
13 | C[C@@H]1CN(c2ccc(C(=O)N3CCC(Cn4cccn4)CC3)cn2)C[C@H](C)O1 | 0.894 | 
14 | COc1ccc(CN2CCN(C(C)C)C(CCO)C2)cc1O (configuration not stated) | 0.796 | 
15 | CCCCn1c(CN2CCC(CO)CC2)cnc1S(=O)(=O)CCCC(C)C |  | 0.311
16 | COc1ccc(C(=O)NC2CC2)c(OC2CCN(CCCC(F)(F)F)CC2)c1 | 0.944 | 

Row | SMILES | bacterial growth OD600 (polymyxin B 1 µg/mL) | bacterial growth OD600 (polymyxin B 0.75 µg/mL)
17 | C=CCOc1cccc(C(=O)NCc2nc(-c3ccccc3NC(=O)c3cc(C)oc3C)oc2C)c1 |  | 0.77
18 | CSCCCNC(=O)c1ccc(OC2CCN(S(C)(=O)=O)CC2)c(Cl)c1 | 1.02 | 
19 | CSCC[C@@H](CO)NC(=O)c1ccc2oc(Cc3ccccc3)nc2c1 |  | 0.852
20 | O=C(/C=C/c1ccco1)N1CC[C@@H](N2CCN(CCc3ccccc3)CC2)[C@H](O)C1 | 0.887 | 
21 | CCCN(CC1CCCO1)C(=O)CCc1nnc(CCc2c[nH]c3ccccc23)o1 (configuration not stated) | 1.02 | 
22 | Cc1ccc(OCCN(C)C(=O)c2ccc(OC3CCN(C(=O)C4CC4)CC3)cc2)cc1 | 1.25 | 
23 | Cc1ccc(CNC2CCCc3nc(-c4cccnc4)ncc32)o1 (configuration not stated) | 0.898 | 
24 | O=C(NCCC1COc2ccccc2O1)c1ccc(NC2CC2)nc1 (configuration not stated) | 0.743 | 
25 | O=C(NCc1cccnc1)c1ccc(N2CCC(NCCC(c3ccccc3)c3ccco3)CC2)cc1 (configuration not stated) |  | 0.791
26 | O=C1N(CC2CCC2)CCCC1(O)CN1CCOCC1 (configuration not stated) | 0.9 | 
27 | OCC1(CCc2ccccc2)CCCN(C2CCN(Cc3ccccn3)CC2)C1 (configuration not stated) |  | 0.791
28 | CO[C@H]1[C@H](NC(=O)c2ccncc2)c2ccccc2C12CCN(C(=O)CCC1CCCCC1)CC2 |  | 0.067
29 | Cc1c(C(C)NC(=O)/C=C/c2cccs2)cnn1-c1ccccn1 (configuration not stated) | 0.901 | 
30 | COC(=O)CCC(=O)N1CCCC(CCc2ccccc2C)C1 (configuration not stated) |  | 0.688
31 | O=C1CCC(C(=O)N2CCCC2)CN1Cc1cccc(C(F)(F)F)c1 (configuration not stated) | 1.02 | 
32 | COc1ccc(OC2CCN(C3CCCC3)CC2)c(C(=O)N(C)CC(C)C)c1 | 0.957 | 
